Data: PMC6202324, “C1GALT1 predicts poor prognosis and is a potential therapeutic target in head and neck cancer” (Oncogene, 2018)
Results are given in words; binding and its absence hold for the method and conditions named. In cells and extracts the contact can be indirect. Some results given as binding are weak or reduced against the parent protein; the word gives no strength.

Sequences of proteins named here, by UniProt entry; tags and fusion partners are left off.
UniProt Q9NS00: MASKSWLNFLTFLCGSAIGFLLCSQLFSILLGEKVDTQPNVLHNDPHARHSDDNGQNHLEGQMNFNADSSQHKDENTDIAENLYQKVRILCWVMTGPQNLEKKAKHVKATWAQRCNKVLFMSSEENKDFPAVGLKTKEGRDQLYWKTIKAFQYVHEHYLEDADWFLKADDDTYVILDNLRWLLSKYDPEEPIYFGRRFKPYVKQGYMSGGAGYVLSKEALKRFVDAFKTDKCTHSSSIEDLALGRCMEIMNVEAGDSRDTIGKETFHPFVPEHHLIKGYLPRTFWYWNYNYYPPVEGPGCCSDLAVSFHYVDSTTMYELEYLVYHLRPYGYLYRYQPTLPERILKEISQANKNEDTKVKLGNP

Biological target: EGFR (endogenous, from control HNSCC cells) (human (endogenous in SAS and OEC-M1)) (UniProt P00533)
Assay: co-IP; SAS and OEC-M1 cells transfected with C1GALT1-HA for 48 h; 500 µg lysate protein with 2 µg anti-HA or anti-EGFR antibody, 18 h, 4 °C, protein A/G agarose; blotted with anti-EGFR or anti-HA

With “C1GALT1-HA (from UniProt Q9NS00 1-363) (enzyme)” the binding was “binds”.
